Test results: PMC9818419
These are yes or no findings as the source states them, for the method shown. In cells and extracts the contact can be indirect. Some binding calls cover weakened binding; strength is not graded here.

Sequences of proteins named here, by UniProt entry; tags and fusion partners are left off. Residues count along the entry.
UniProt A2ARV4, residues 26-4660: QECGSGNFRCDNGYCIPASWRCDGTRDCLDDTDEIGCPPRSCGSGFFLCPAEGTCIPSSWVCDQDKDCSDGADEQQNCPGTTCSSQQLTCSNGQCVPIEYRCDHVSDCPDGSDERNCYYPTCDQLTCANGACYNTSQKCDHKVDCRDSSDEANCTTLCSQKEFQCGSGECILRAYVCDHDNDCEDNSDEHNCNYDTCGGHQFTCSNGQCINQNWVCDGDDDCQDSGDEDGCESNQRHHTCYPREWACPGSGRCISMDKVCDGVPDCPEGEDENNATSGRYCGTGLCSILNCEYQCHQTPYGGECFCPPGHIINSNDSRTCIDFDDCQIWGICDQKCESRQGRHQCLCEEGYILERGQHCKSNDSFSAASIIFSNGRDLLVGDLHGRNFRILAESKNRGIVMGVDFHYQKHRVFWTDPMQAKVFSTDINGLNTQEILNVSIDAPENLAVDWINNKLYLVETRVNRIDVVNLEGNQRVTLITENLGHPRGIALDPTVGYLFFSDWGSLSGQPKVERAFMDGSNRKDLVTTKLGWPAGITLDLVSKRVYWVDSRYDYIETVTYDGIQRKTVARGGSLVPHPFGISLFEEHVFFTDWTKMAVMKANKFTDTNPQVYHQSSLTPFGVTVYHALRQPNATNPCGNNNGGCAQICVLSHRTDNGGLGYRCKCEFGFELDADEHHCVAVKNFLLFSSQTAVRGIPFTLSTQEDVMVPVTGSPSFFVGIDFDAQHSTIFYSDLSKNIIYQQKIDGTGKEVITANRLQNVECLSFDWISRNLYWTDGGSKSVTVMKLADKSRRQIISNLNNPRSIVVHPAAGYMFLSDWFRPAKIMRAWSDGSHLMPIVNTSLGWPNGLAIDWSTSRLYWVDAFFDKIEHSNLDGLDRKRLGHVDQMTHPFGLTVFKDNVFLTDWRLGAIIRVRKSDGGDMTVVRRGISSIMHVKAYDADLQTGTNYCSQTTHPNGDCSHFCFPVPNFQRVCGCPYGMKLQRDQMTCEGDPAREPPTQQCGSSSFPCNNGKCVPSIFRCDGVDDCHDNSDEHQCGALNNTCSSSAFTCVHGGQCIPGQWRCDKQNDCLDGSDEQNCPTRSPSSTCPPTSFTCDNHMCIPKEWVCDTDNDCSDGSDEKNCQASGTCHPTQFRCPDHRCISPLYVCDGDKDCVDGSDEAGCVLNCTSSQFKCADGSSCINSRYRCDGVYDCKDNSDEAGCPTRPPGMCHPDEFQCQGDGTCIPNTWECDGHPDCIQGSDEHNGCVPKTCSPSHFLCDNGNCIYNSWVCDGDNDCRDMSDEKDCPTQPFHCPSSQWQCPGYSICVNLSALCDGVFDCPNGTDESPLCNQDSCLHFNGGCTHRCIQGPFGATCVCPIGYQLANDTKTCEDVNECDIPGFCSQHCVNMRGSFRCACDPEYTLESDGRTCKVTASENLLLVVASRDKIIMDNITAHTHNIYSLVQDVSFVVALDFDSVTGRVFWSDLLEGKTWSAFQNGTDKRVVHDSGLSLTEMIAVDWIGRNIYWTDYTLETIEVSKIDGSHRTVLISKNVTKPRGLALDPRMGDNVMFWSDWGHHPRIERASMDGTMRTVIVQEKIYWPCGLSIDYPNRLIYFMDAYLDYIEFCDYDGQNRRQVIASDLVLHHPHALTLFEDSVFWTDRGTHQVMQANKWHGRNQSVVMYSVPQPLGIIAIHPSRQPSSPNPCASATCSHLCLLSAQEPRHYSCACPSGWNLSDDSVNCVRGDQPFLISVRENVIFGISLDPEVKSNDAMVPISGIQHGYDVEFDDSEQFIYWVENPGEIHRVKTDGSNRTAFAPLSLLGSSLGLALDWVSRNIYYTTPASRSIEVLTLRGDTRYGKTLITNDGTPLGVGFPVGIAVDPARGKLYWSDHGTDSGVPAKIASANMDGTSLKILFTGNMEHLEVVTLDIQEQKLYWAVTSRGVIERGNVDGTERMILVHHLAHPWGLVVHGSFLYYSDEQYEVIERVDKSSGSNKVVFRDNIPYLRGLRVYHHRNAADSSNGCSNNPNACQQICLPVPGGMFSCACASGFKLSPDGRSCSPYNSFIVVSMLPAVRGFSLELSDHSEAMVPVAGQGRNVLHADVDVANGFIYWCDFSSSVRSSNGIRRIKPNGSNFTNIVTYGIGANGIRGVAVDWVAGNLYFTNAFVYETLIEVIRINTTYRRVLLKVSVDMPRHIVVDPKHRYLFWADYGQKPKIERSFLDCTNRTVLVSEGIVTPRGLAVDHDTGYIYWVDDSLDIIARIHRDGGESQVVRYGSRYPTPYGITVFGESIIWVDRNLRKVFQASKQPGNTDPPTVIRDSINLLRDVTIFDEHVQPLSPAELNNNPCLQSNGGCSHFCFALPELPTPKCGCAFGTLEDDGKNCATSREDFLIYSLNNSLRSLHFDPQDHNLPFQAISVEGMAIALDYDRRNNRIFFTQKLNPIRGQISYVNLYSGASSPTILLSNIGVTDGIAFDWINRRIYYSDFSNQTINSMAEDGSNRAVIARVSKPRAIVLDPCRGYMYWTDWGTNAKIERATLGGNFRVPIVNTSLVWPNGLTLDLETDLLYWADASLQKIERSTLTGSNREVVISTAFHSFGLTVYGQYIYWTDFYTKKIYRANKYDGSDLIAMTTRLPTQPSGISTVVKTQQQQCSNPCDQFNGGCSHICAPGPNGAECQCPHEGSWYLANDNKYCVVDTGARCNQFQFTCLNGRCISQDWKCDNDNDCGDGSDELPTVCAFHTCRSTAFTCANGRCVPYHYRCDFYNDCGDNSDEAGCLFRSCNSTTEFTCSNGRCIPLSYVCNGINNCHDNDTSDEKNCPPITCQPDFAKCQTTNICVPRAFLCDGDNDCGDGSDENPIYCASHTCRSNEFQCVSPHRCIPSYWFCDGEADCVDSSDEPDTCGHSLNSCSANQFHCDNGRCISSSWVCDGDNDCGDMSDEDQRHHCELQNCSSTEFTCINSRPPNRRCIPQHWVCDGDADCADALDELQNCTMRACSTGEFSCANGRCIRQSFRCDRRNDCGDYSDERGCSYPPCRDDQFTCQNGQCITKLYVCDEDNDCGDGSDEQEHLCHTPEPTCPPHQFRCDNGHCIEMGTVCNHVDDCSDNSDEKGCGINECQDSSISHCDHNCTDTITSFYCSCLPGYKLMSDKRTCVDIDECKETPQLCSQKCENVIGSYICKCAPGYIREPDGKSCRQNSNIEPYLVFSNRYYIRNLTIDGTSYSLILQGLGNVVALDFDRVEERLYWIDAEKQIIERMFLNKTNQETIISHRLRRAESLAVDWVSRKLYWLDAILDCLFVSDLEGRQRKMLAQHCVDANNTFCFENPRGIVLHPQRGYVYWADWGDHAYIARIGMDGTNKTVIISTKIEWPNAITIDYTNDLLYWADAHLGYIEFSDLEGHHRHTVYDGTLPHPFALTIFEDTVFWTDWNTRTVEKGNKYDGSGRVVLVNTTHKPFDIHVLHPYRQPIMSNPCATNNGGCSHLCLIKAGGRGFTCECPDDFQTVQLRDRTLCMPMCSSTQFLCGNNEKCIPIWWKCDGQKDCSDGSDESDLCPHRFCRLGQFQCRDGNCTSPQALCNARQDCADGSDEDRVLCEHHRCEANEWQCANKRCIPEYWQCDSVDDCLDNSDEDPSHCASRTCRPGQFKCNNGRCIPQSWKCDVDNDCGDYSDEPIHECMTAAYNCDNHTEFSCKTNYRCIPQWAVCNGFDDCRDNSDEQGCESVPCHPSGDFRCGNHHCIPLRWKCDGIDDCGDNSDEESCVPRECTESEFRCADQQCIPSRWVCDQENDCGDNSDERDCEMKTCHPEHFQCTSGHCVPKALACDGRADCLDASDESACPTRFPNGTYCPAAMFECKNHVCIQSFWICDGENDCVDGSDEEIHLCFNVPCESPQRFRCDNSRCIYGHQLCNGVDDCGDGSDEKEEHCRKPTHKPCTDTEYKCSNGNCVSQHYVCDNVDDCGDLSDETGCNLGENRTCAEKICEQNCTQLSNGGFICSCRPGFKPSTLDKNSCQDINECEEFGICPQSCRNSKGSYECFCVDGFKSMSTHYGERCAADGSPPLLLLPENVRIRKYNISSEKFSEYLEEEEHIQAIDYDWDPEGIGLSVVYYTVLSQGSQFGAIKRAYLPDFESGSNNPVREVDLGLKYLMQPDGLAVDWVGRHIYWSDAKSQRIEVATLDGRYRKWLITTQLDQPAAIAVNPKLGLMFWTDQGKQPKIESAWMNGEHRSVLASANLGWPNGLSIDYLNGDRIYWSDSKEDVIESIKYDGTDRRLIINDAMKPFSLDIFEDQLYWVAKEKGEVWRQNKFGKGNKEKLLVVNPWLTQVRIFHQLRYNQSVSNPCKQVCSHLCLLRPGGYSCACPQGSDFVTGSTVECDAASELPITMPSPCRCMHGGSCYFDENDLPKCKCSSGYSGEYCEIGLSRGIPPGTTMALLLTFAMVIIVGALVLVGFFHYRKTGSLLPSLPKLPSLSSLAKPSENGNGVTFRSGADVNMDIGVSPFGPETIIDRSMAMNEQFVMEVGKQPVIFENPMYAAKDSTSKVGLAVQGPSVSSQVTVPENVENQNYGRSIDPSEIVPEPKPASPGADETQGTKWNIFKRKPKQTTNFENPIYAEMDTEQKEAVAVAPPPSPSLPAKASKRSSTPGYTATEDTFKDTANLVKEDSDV

Biological target: megalin (endogenous, mouse kidney) (mouse (endogenous in kidney)) (UniProt A2ARV4)
Assay: co-IP; mouse kidney homogenate; guinea pig anti-megalin antibody and protein A/G magnetic beads, 4 °C; blots of megalin and FcRn

B1: FcRn (endogenous, mouse kidney) (receptor, UniProt Q61559 22-365)
chain: SETRPPLMYHLTAVSNPSTGLPSFWATGWLGPQQYLTYNSLRQEADPCGAWMWENQVSWYWEKETTDLKSKEQLFLEALKTLEKILNGTYTLQGLLGCELASDNSSVPTAVFALNGEEFMKFNPRIGNWTGEWPETEIVANLWMKQPDAARKESEFLLNSCPERLLGHLERGRRNLEWKEPPSMRLKARPGNSGSSVLTCAAFSFYPPELKFRFLRNGLASGSGNCSTGPNGDGSFHAWSLLEVKRGDEHHYQCQVEHEGLAQPLTVDLDSSARSSVPVVGIVLGLLLVVVAIAGGVLLWGRMRSGLPAPWLSLSGDDSGDLLPGGNLPPEAEPQGANAFPATS
binding: binds
